Results are given in words; binding and its absence hold for the method and conditions named. Some results given as binding are weak or reduced against the parent protein; the word gives no strength.

Chains of the proteins cited; added tags and fusions are not shown. Residues count along the entry.
UniProt Q02223, residues 1-54: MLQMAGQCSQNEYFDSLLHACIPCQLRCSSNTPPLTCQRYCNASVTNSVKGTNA

Among the data in patent publication CN113265001A are binding values, retold here.

The target in this experiment is BCMA-His重组蛋白 (UniProt Q02223). Description: ELISA screen of clones on coated BCMA-His. A general note: ELISA stands for enzyme-linked immunosorbent assay.

B1: BCMA-12 粗提VHH抗体 (VHH, not shown: small tags and cut ends)
VHH: EVQLVESGGDSVQAGGSLRLSCAVSGYTDSKNLMGWFRQAPGKEREGVAVIYTGGGRPVYADSVKGRFTISQDSAKNTVYLQMNSLKPEDTALYYCAADYLGGAWPFGAYRYWGQGTQVTVSS
B1: the binding result is given as “binds”.
